Laboratory results: PubChem BioAssay AID1259254 (NCATS, 2017)
Purpose: 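Finding genes that stop cells copying their DNA twice in one cycle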 (primary screen). Cell system: human HCT116 colorectal cancer cells. Knock-down reagent: single siRNA against human genes. Time to read-out: 3 days. Measured: 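Imaged Hoechst DNA stain sorts each cell into a cycle phase by DNA amount; per plate, G2 fraction set to 0% for non-targeting and 100% for GMNN siRNA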. Scale: G2 robust z-score: higher = more G2 cells, more excess DNA replication. Rule for the call: 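Active siRNAs have a G2 robust z of 5 or more median absolute deviations over the median, which in these data means about 38% or higher of GMNN control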.
The whole screen tested about 59,000 reagents; below is an unselected part. In the full data, about 1,550 (2.6%) are marked active. 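G2 share is only a proxy for re-replication; each gene was hit by three separate siRNAs, and active genes were retested.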 Entries without a mark were called inactive. The numbers tell different reagents against one gene apart. Further read-outs or replicates are left out here. Not stated in the record: the amount of reagent.

| Target gene | reagent | G2 robust z-score |
| --- | --- | --- |
| CENPVL3 | 1 | -0.95 |
| CENPVL3 | 2 | 0.37 |
| CENPVL3 | 3 | -0.935 |
| OR2B6 | 1 | -0.791 |
| OR2B6 | 2 | -0.121 |
| OR2B6 | 3 | -0.17 |
| PLLP | 1 | 0.0429 |
| PLLP | 2 | 0.633 |
| PLLP | 3 | -0.203 |
| PDIA2 | 1 | -0.343 |
| PDIA2 | 2 | -1.24 |
| PDIA2 | 3 | 0.697 |
| HYOU1 | 1 | -0.727 |
| HYOU1 | 2 | -0.618 |
| HYOU1 | 3 | -0.534 |
| GPATCH2L | 1 | 1.34 |
| GPATCH2L | 2 | 0.35 |
| GPATCH2L | 3 | -0.489 |
| MYOM3 | 1 | 1.77 |
| MYOM3 | 2 | 0.395 |
| MYOM3 | 3 | -0.701 |
| LHFPL4 | 1 | -0.36 |
| LHFPL4 | 2 | 2.66 |
| LHFPL4 | 3 | 0.649 |
| GAS2L1 | 1 | -0.787 |
| GAS2L1 | 2 | 2.53 |
| GAS2L1 | 3 | 0.0366 |
| PRKD1 | 1 | -1.53 |
| PRKD1 | 2 | -1.88 |
| PRKD1 | 3 | 0.286 |
| SYTL1 | 1 | -0.185 |
| SYTL1 | 2 | 0.231 |
| SYTL1 | 3 | 1.44 |
| MYBL1 | 1 | 1.39 |
| MYBL1 | 2 | 0.0193 |
| MYBL1 | 3 | 1.04 |
| MYBL1 | 4 | -0.882 |
| MYBL1 | 5 | -1.01 |
| MYBL1 | 6 | 2.02 |
| SSC4D | 1 | 0.624 |
| SSC4D | 2 | -1.51 |
| SSC4D | 3 | 9.52 (active) |
| PRUNE2 | 1 | -0.386 |
| PRUNE2 | 2 | 1.49 |
| PRUNE2 | 3 | -0.798 |
| SOX17 | 1 | -1.37 |
| SOX17 | 2 | 0.113 |
| SOX17 | 3 | 0.0325 |
| MRPS34 | 1 | 1.41 |
| MRPS34 | 2 | -0.883 |
| MRPS34 | 3 | -0.558 |
| GPR21 | 1 | 0.628 |
| GPR21 | 2 | 0.417 |
| GPR21 | 3 | -1.07 |
| NNT | 1 | -0.342 |
| NNT | 2 | 1.64 |
| NNT | 3 | 0.935 |
| TEKT2 | 1 | -0.378 |
| TEKT2 | 2 | -0.688 |
| TEKT2 | 3 | -0.795 |
| NXPH4 | 1 | -0.141 |
| NXPH4 | 2 | -0.765 |
| NXPH4 | 3 | 4.68 |
| H2AX | 1 | -1.02 |
| H2AX | 2 | -0.871 |
| H2AX | 3 | -0.9 |
| UBN1 | 1 | -0.451 |
| UBN1 | 2 | 1.55 |
| UBN1 | 3 | -0.881 |
| BICD2 | 1 | -1.1 |
| BICD2 | 2 | 1.25 |
| BICD2 | 3 | -0.245 |
| GPATCH3 | 1 | 1.18 |
| GPATCH3 | 2 | 1.47 |
| GPATCH3 | 3 | 1.95 |
| ZBTB24 | 1 | 0.96 |
| ZBTB24 | 2 | -1.26 |
| ZBTB24 | 3 | 0.694 |
| FBXO30 | 1 | 2.99 |
| FBXO30 | 2 | 0.175 |
| FBXO30 | 3 | -0.687 |
| SLC46A2 | 1 | 1.4 |
| SLC46A2 | 2 | -0.3 |
| SLC46A2 | 3 | -0.567 |
| CTHRC1 | 1 | -0.535 |
| CTHRC1 | 2 | -0.382 |
| CTHRC1 | 3 | -0.63 |

Already shown: an excerpt of the list.
| Target gene | reagent | G2 robust z-score |
| --- | --- | --- |
| MRPS34 | 3 | -0.558 |
| GPR21 | 1 | 0.628 |
| GPR21 | 2 | 0.417 |
| GPR21 | 3 | -1.07 |
| NNT | 1 | -0.342 |
